PubChem BioAssay AID504764 – Drosophila RNAi Screening Center, 2011

Purpose: 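Genome-wide screen for regulators of Notch-driven gene expression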 (primary screen)
System: Drosophila Kc167 cells
Reagent: long dsRNA against Drosophila genes
Duration: about 5 days (4 days dsRNA, then 24 h after transfection)
Challenge: transfection of constitutively active membrane-tethered Notch lacking the extracellular domain, read 24 h later
Measured: 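Firefly luciferase from an E(spl)m3 reporter with active Notch, plus control-promoter and uninduced reporter wells for normalisation; unnormalised counts, duplicate wells a and b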
Scale: induced reporter light, run 1, well a and induced reporter light, run 1, well b: higher = more light from the Notch target reporter with active Notch; control promoter light, run 1, well a and control promoter light, run 1, well b: higher = more light from the viral control promoter (cell number, transfection, viability); uninduced reporter light, run 1, well a: higher = more light from the Notch target reporter without active Notch
Hit rule: 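Hit if the duplicate-averaged log2 ratio of induced to control-promoter light gives a plate-wise z beyond ±2, or induced to uninduced beyond ±1.8; weak-control or discordant-duplicate wells dropped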
Meaning of the calls: active = modifier hit (raised or lowered Notch signal); inactive = not a hit
In all, the deposit lists about 22,000 reagents; this is a random part of those that have a named target and a result. Of all reagents, 403 (1.9%) are marked active. 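Unnormalised raw counts per well; ratio z-scores behind the hit calls and whether each hit raises or lowers signal are not deposited.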 The numbers tell different reagents against one gene apart. Names joined by + are all predicted targets of the reagent. The record does not give: the amount of reagent.

no.	Target gene	reagent	induced reporter light, run 1, well a	induced reporter light, run 1, well b	control promoter light, run 1, well a	control promoter light, run 1, well b	uninduced reporter light, run 1, well a	call
1	Cog4 (Component of oligomeric golgi complex 4)	1	1.79e5	1.81e5	1.53e5	1.48e5	11790	inactive
2	CG15643	1	90580	71385	95080	67500	10290	inactive
3	CG34398	1	1.28e5	1.43e5	1.98e5	2.20e5	10850	inactive
4	CG34398	2	1.42e5	1.66e5	89570	1.34e5	22505	inactive
5	CG34398	3	2.11e5	2.05e5	1.50e5	1.59e5	15730	inactive
6	CG34398	4	1.42e5	1.53e5	1.30e5	97180	21465	inactive
7	Grl62c (Gustatory receptor-like 62c)	1	2.22e5	1.98e5	2.15e5	2.11e5	16710	inactive
8	Ehbp1 (Eps15 homology domain containing protein-binding protein 1)	1	96685	98315	1.97e5	2.17e5	8450	inactive
9	Buffy	1	1.16e5	1.22e5	1.49e5	1.36e5	10220	inactive
10	CG33143	1	1.89e5	1.72e5	1.77e5	1.49e5	13840	inactive
11	CG33143	2	1.84e5	2.00e5	1.49e5	1.30e5	15235	inactive
12	CG8353	1	1.44e5	1.41e5	78765	1.08e5	18580	inactive
13	btl (breathless)	1	2.72e5	2.04e5	3.22e5	2.54e5	9125	inactive
14	Rpt3 (Regulatory particle triple-A ATPase 3)	1	1.01e5	92845	1.67e5	1.34e5	7020	inactive
15	eyg (eyegone)	1	8860	7595	8365	6550	3430	inactive
16	Jwa	1	2.25e5	2.08e5	2.47e5	1.93e5	16725	inactive
17	CG31347	1						inactive
18	Prp18	1	1.49e5	1.45e5	1.52e5	1.52e5	12025	inactive
19	CG31777	1	1.11e5	1.15e5	1.36e5	1.52e5	10340	inactive
20	ATPsynB (ATP synthase, subunit B)	1	46215	44585	62485	34375	4315	active
21	CG34176	1	1.15e5	99390	1.40e5	1.09e5	7415	inactive
22	GNBP2 (Gram-negative bacteria binding protein 2)	1	1.56e5	1.13e5	95580	89530	9530	inactive
23	CG42561	1	1.09e5	1.14e5	1.72e5	1.35e5	8985	inactive
24	CG3176 + CR18166 + CG32817	1	64890	73400	97180	1.13e5	5465	inactive
25	CG3176 + CR18166 + CG32817	2	58260	61350	98225	78180	5095	inactive
26	CG3176 + CR18166 + CG32817	3	1.56e5	1.83e5	2.14e5	2.08e5	12595	inactive
27	Or33a (Odorant receptor 33a)	1	1.39e5	1.47e5	1.52e5	1.68e5	12470	inactive
28	hpo (hippo)	1	1.03e5	1.01e5	2.02e5	2.28e5	8330	inactive
29	CG18507	1	1.18e5	1.20e5	1.31e5	1.26e5	8055	inactive
30	CG18507	2	1.85e5	1.76e5	1.87e5	1.91e5	16680	inactive
31	CG33557	1	1.33e5	1.38e5	3.05e5	2.26e5	8310	inactive
32	scpr-B (SCP-containing protein B)	1	1.34e5	1.24e5	89925	85510	9445	inactive
33	CG12253	1	3.25e5	2.84e5	2.32e5	2.17e5	19820	inactive
34	fon (fondue)	1	1.62e5	1.65e5	1.46e5	1.76e5	15670	inactive
35	trk (trunk)	1	1.24e5	1.26e5	71640	90575	15220	inactive
36	lncRNA:CR32657 (long non-coding RNA:CR32657)	1	1.53e5	1.64e5	2.62e5	3.03e5	11935	inactive
37	CG12869	1	90660	1.16e5	1.57e5	1.34e5	8805	inactive
38	E(spl)mdelta-HLH (Enhancer of split mdelta, helix-loop-helix)	1	1.73e5	1.49e5	1.97e5	1.97e5	14880	inactive
39	Tom70 (Translocase of outer membrane 70)	1	1.30e5	1.53e5	1.62e5	1.76e5	11275	inactive
40	CG33296	1	1.46e5	1.68e5	1.99e5	1.78e5	10640	inactive
41	tay (tay bridge)	1	1.82e5	1.57e5	2.03e5	1.78e5	11965	inactive
42	CG15347	1	1.31e5	1.43e5	2.55e5	2.36e5	9945	inactive
43	CG6294 + CG6299	1	71060	63700	71315	73590	9870	inactive
44	CG42394 + CG6567	1	2.00e5	1.68e5	1.95e5	1.86e5	12528	inactive
45	CG34288	1	98180	82720	1.31e5	1.20e5	12525	inactive
46	CG4049	1	1.89e5	1.65e5	1.30e5	1.35e5	12765	inactive
47	Fili (Fish-lips)	1	73850	58880	76200	78450	7655	inactive
48	Fili (Fish-lips)	2	33270	37295	36705	33505	2950	inactive
49	Fili (Fish-lips)	3	32470	41440	35575	50815	2050	inactive
50	CG14135	1	2.66e5	1.99e5	3.04e5	3.03e5	14815	inactive
51	eIF3k (eukaryotic translation initiation factor 3 subunit k)	1	2.27e5	2.41e5	1.51e5	1.70e5	19945	inactive
52	CG9701	1	1.11e5	1.27e5	93010	89310	10940	inactive
53	CG13245	1	1.88e5	1.63e5	1.47e5	1.34e5	11565	inactive
54	Rsf1 (Repressor splicing factor 1)	1	1.08e5	1.38e5	74885	1.03e5	19320	inactive
55	Rsf1 (Repressor splicing factor 1)	2						inactive
56	Tmem63 (Transmembrane protein 63)	1	1.74e5	1.87e5	2.42e5	2.06e5	17942	inactive
57	CG14658	1	1.25e5	1.03e5	1.32e5	1.40e5	10280	inactive
58	CG17600	1	83255	73325	1.12e5	1.32e5	9550	inactive
59	CG17600	2	66020	93465	73530	1.03e5	8210	inactive
60	CG14834	1	1.79e5	1.83e5	1.75e5	1.27e5	5795	inactive
61	Lamtor3 (Late endosomal/lysosomal adaptor, MAPK and MTOR activator 3)	1	1.52e5	1.40e5	1.89e5	2.05e5	12382	inactive
62	CG7091	1	1.27e5	1.22e5	1.52e5	1.61e5	10215	inactive
63	CG7091	2	4.19e5	3.30e5	2.96e5	2.86e5	25530	inactive
64	Mur89F (Mucin related 89F)	1	1.83e5	1.93e5	1.96e5	2.01e5	17320	inactive

4 entries already listed, ordered by “control promoter light, run 1, well a”, low to high.
Target gene	reagent	induced reporter light, run 1, well a	induced reporter light, run 1, well b	control promoter light, run 1, well a	control promoter light, run 1, well b	uninduced reporter light, run 1, well a	call
CG3176 + CR18166 + CG32817	1	64890	73400	97180	1.13e5	5465	inactive
CG3176 + CR18166 + CG32817	2	58260	61350	98225	78180	5095	inactive
CG42561	1	1.09e5	1.14e5	1.72e5	1.35e5	8985	inactive
CG3176 + CR18166 + CG32817	3	1.56e5	1.83e5	2.14e5	2.08e5	12595	inactive
